Measured values as given in ChEMBL document CHEMBL3124930, “Synthesis of novel 5-(3-alkylquinolin-2-yl)-3-aryl isoxazole derivatives and their cytotoxic activity” (Bioorg Med Chem Lett, 2014).

System: A549
Assay: Cytotoxicity against human A549 cells assessed as growth inhibition after 24 hrs by MTT assay
Assay type: functional, cell-based
Settings: A549, 24 h

For `COc1cccc2c1C(=O)c1c(O)c3c(c(O)c1C2=O)C[C@@](O)(C(=O)CO)C[C@@H]3O[C@H]1C[C@H](N)[C@H](O)[C@H](C)O1` [DOXORUBICIN], the IC50 was 800 nM.
